According to PubChem BioAssay AID445 (National Center for Advancing Translational Sciences (NCATS), 2006):
The list shows a part of the results. Shown are side measurements of this screen, not its main read-out; they come without a call. The list favours compounds with an active or inconclusive main result. The note in brackets gives the kind of curve behind each potency; many fits are weak.

Test: IkB Signaling
Conditions: ABC-DLBCL IkBa-CBG/CBR dual luciferase ratio (green luciferase fused to IkBa over red control in OCI-Ly3 lymphoma cells), 4 h
Outline: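 Luminescence ratio of IκBα-fused green versus native red beetle luciferase in OCI-Ly3 cells, 4 h post-doxycycline with compound; red signal alone, scaled from basal (0%) to zero light (-100%), flagged nonspecific or cytotoxic effects.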

[1] = measured here: control luc red channel unless noted
[2] = measured here: IkB-luc green channel
[3] = measured here: control luc red channel

## Cc1ccccc1NC(=O)CCOc1ccccc1
[1]
  AC50: 31.6 µM [falling, single point]

## COc1cc(-c2nc3ccc(Cl)cn3c2Nc2ccc3c(c2)OCO3)ccc1O
[1]
  AC50: 20 µM [falling, partial curve]

## CCOc1cccc(C(=O)Nc2ccc(N(CC)CC)cc2)c1
[1]
  AC50: 15.8 µM [falling, partial curve]

## CC(NC(=O)c1ccc(CSc2nc3ccncc3n2Cc2ccc(F)cc2)cc1)c1ccccc1 (stereo not given)
[1]
  AC50: 12.6 µM [falling, partial curve]

## O=C(CC1CCCCC1)c1c(O)c2ccccc2oc1=O
[1]
  AC50: 1.58 µM [falling, full curve]

## Cc1cc(Nc2cccc(F)c2)nc(-c2ccccc2O)n1
[1]
  AC50: 39.8 µM [rising, single point] [measured here: IkB-luc green channel]

## O=C(CSC1=NS(=O)(=O)c2ccccc21)Nc1ccccc1
[2]
  AC50: 3.98 µM [rising, full curve]
[3]
  AC50: 0.00316 µM [falling, full curve]

## CCOC(=O)c1cnc(-c2ccccc2)nc1N
[1]
  AC50: 10 µM [falling, partial curve]

## COCCNC(=O)c1ccc2c(c1)N(Cc1ccc(C(F)(F)F)cc1)C(=O)c1ccccc1S2
[1]
  AC50: 12.6 µM [falling, partial curve]

## COc1ccc(-c2cn(-c3ccc(C)cc3)c(S(=O)(=O)CC(=O)Nc3ccccc3)n2)cc1
[1]
  AC50: 12.6 µM [falling, partial curve]

## Cc1ccc(CNC(=O)CN(C)S(=O)(=O)c2ccc(Br)s2)cc1
[1]
  AC50: 3.16 µM [falling, partial curve]

## CCn1c(=O)cc(OCC(=O)Nc2ccc(C)cn2)c2ccccc21
[1]
  AC50: 7.94 µM [falling, full curve, poor fit]

## CC(C)c1ccccc1NC(=O)CSc1nnc(COc2ccccc2)o1
[1]
  AC50: 15.8 µM [falling, partial curve]

## O=C(Nc1ccc(Cl)c(Cl)c1)c1cc(S(=O)(=O)N2CCN(c3cccc(Cl)c3)CC2)ccc1F
[1]
  AC50: 12.6 µM [falling, partial curve]

## O=C(NCCCCc1ccccc1)c1nn(-c2ccccc2F)nc1CO
[1]
  AC50: 25.1 µM [falling, partial curve]

## CC(C)OCCCn1c(SCC(N)=O)nc2c(sc3ccccc32)c1=O
[1]
  AC50: 3.98 µM [rising, single point]

## O=C(c1ccc(CS(=O)c2ccccc2Cl)o1)N1CCN(c2cccc(C(F)(F)F)c2)CC1 (stereo not given)
[1]
  AC50: 25.1 µM [falling, single point]

## Cc1ccc(-c2nc3cnccn3c2Nc2ccccc2)o1
[2]
  AC50: 6.31 µM [rising, single point]
[3]
  AC50: 39.8 µM [falling, single point]

## O=C(Nc1ccccc1)Nc1cccc2cccnc12
[1]
  AC50: 20 µM [falling, partial curve]

## c1ccc(OCc2nc(-c3ccccc3)no2)cc1
[1]
  AC50: 20 µM [falling, single point]

## CCCOc1ccc(C(=O)NCC(c2ccc(OC)cc2)N2CCCCC2)cc1 (stereo not given)
[1]
  AC50: 39.8 µM [falling, single point]

## COc1ccc(Cn2ccn(CC(=O)Nc3cc(C)ccc3C)c(=O)c2=O)cc1
[1]
  AC50: 20 µM [falling, single point]

## C=CCn1c(N)c(C(=O)NCC2CCCO2)c2nc3ccccc3nc21 (stereo not given)
[1]
  AC50: 10 µM [falling, partial curve]

## Cc1ccc(NC(=O)Cn2c(=O)ccc3cc(S(=O)(=O)N4CCCC4)ccc32)cc1C
[1]
  AC50: 7.94 µM [falling, full curve, poor fit]

## O=C(Nc1nc2cc3c(cc2s1)OCCO3)c1cccc(S(=O)(=O)N2CCOCC2)c1
[1]
  AC50: 15.8 µM [falling, partial curve]

## COc1cc(CN(C(=O)c2ccccc2)c2ccccn2)cc(OC)c1OC
[1]
  AC50: 3.16 µM [falling, partial curve]

## COc1ccc2c(c1)c(=O)c(C(=O)c1ccc(F)cc1)cn2CC(=O)Nc1ccc2c(c1)OCCO2
[1]
  AC50: 39.8 µM [rising, single point] [measured here: IkB-luc green channel]

## COc1ccc(-c2cn3cccnc3n2)cc1NC(=O)c1ccccc1C(F)(F)F
[1]
  AC50: 7.94 µM [rising, partial curve]

## COc1ccccc1N(CCC#N)C(=O)CSc1nc(-c2ccccc2)cn1N
[1]
  AC50: 31.6 µM [falling, single point]

## O=C1CC(N(O)c2ccccc2)C(=O)N1c1cc(Cl)cc(Cl)c1 (stereo not given)
[1]
  AC50: 0.398 µM [falling, full curve, poor fit]

## CCOC(=O)CSc1nnc(-c2ccc(OC)cc2)o1
[1]
  AC50: 39.8 µM [falling, single point]

## Cc1cn2c(=O)cc(COC(=O)COc3ccc(C)c(C)c3)nc2s1
[1]
  AC50: 0.0794 µM [rising, full curve, poor fit]

## CCCOc1ccc(C(=O)N(Cc2ccc(Cl)cc2)Cc2ccco2)cc1
[1]
  AC50: 31.6 µM [falling, single point]

## Cc1ccc(CNC(=O)c2ccc3c(c2)NC(=O)C(CS(=O)(=O)Cc2cccc(C)c2)N3)cc1 (stereo not given)
[1]
  AC50: 25.1 µM [falling, single point]

## COc1ccc(CCNC(=O)c2cc(-c3ccccc3O)n[nH]2)cc1OC
[1]
  AC50: 5.01 µM [falling, partial curve]

## Cc1cccc(N(C)S(=O)(=O)c2nnc(NC(=O)C(C)(C)C)s2)c1
[1]
  AC50: 15.8 µM [falling, partial curve]

## O=C(c1ccc2c(c1)N(Cc1ccccc1F)C(=O)c1ccccc1S2=O)N1CCC(Cc2ccccc2)CC1 (stereo not given)
[1]
  AC50: 6.31 µM [falling, partial curve]

## COc1ccc(NC(=O)C2CCCN(S(=O)(=O)c3cccc4cccnc34)C2)cc1 (stereo not given)
[1]
  AC50: 15.8 µM [falling, partial curve]

## CCOC(=O)c1cc(-c2ccc(F)cc2)n(CCC(=O)Nc2nc3cc(C)c(C)cc3s2)c1C
[1]
  AC50: 2.51 µM [falling, full curve]

## CCOc1ccc(-n2c(-c3ccc(Br)cc3)cc3c2CC(C)(C)CC3=O)cc1
[1]
  AC50: 39.8 µM [falling, partial curve]

## COc1ccc(OCc2ccc(-c3nc(C#N)c(NCc4ccc(F)cc4)o3)o2)cc1
[1]
  AC50: 1.26 µM [falling, partial curve]

## O=C(CN1CCN(c2nc(-c3ccc(F)cc3)cs2)CC1)NCc1ccc2c(c1)OCO2
[1]
  AC50: 12.6 µM [falling, partial curve]

## OCCN1CCN(c2ncnc3c2cnn3-c2cccc(Cl)c2)CC1
[1]
  AC50: 39.8 µM [falling, single point]

## Cc1ccc(CNC(=O)C2CCCN(c3nc4ccccc4n4cccc34)C2)cc1 (stereo not given)
[1]
  AC50: 12.6 µM [falling, partial curve]

## COc1ccc(C(C)NC(=O)CN(c2cc(OC)ccc2OC)S(=O)(=O)c2ccccc2)cc1 (stereo not given)
[1]
  AC50: 25.1 µM [falling, partial curve]

## Brc1cccc(-c2nn(-c3ccccc3)c3c2cnc2cc4c(cc23)OCO4)c1
[1]
  AC50: 25.1 µM [falling, single point]

## CCc1cccc(C)c1NC(=O)C1CCN(S(=O)(=O)c2cc(Br)cc3c2N(C(C)=O)CC3)CC1
[1]
  AC50: 25.1 µM [rising, single point]

## O=C(c1cccs1)N1CCCc2cc(NS(=O)(=O)c3ccc(Br)cc3)ccc21
[1]
  AC50: 20 µM [falling, partial curve]

## COc1cccc(-n2ccnc2SCC(=O)Nc2cccc3ccccc23)c1
[1]
  AC50: 0.158 µM [rising, full curve, poor fit]

## COc1ccc(-n2c(CC3C(=O)Nc4ccc(C)cc43)nc3ccccc3c2=O)cc1 (stereo not given)
[1]
  AC50: 25.1 µM [falling, single point]

## O=C(NCc1ccccc1Cl)c1ccc2c(c1)ncn2-c1cccc(F)c1
[1]
  AC50: 39.8 µM [falling, single point]

## CCc1ccc(C2c3c(-c4cc(C)ccc4O)n[nH]c3C(=O)N2CCO)cc1 (stereo not given)
[1]
  AC50: 15.8 µM [falling, single point]

## Cn1c(SCC(=O)N2CCOCC2)ncc(C(=O)Nc2ccc(F)cc2)c1=O
[2]
  AC50: 39.8 µM [rising, single point]
[3]
  AC50: 6.31 µM [falling, single point]

## COc1ccc(NC(=O)CCCS(=O)(=O)c2nc(-c3ccccc3OC)cc(C(F)(F)F)n2)c(OC)c1
[1]
  AC50: 7.94 µM [falling, partial curve]

## Cn1c(C(=O)NCc2ccccc2Cl)cc2sc(Cl)cc21
[1]
  AC50: 31.6 µM [falling, single point]

## COc1cccc(CNC(=O)CN(c2cc(C)cc(C)c2)S(=O)(=O)c2c(C)noc2C)c1
[1]
  AC50: 12.6 µM [falling, partial curve]

## COc1ccc(-c2csc3ncnc(Nc4ccc(OC)cc4OC)c23)cc1
[1]
  AC50: 31.6 µM [falling, partial curve]

## CCc1cccc(NC(=O)Cn2c(=O)n(CC3CCC(C(=O)NC)CC3)c(=O)c3sccc32)c1 (stereo not given)
[1]
  AC50: 3.98 µM [falling, full curve, poor fit]

## O=C(Cc1cccs1)Nc1ccccc1C(=O)O
[1]
  AC50: 15.8 µM [falling, partial curve]

## COc1cccc(CNC(=O)Cn2c(=O)cc(C)c3c(C)nn(C)c32)c1OC
[1]
  AC50: 39.8 µM [falling, single point]

## O=C(NC1CCCCC1)c1ccc2c(c1)N(Cc1ccc(F)cc1)C(=O)c1ccccc1S2(=O)=O
[1]
  AC50: 10 µM [falling, partial curve, poor fit]

## N#CC1=C(N)N(c2ccc(Cl)cc2)C2=C(C(=O)CCC2)C1c1cc(CN2CCOCC2)cs1 (stereo not given)
[1]
  AC50: 10 µM [falling, partial curve]
